Laboratory results as given in doi:10.1101/2025.08.29.668156.
Results are given in words; binding and its absence hold for the method and conditions named. In cells and extracts the contact can be indirect. Here binding means that the protein was enriched with, or labelled near, the bait; the list need not be complete. Tags and fused reporters may be left off the sequences shown.

T1: ST6GALNAC1 fused to ultraID (UniProt Q9NSC7)
T1 sequence: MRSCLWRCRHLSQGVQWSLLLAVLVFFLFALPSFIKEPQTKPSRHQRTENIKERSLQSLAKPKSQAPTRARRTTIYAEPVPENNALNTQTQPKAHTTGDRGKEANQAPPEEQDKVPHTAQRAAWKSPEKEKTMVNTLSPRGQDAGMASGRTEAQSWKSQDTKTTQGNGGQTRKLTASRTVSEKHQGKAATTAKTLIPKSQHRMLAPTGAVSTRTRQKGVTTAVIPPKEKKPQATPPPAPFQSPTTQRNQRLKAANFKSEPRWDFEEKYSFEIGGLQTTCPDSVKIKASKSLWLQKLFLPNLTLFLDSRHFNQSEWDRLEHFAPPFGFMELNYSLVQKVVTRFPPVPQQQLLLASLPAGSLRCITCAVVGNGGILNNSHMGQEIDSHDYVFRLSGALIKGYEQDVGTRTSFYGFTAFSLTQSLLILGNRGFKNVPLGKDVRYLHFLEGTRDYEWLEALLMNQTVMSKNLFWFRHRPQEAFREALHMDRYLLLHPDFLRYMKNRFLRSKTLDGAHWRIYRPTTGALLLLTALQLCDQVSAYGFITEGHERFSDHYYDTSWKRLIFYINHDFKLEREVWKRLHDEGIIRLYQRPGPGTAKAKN

B1: GALNT3 (protein, UniProt Q14435 1-633)
chain: MAHLKRLVKLHIKRHYHKKFWKLGAVIFFFIIVLVLMQREVSVQYSKEESRMERNMKNKNKMLDLMLEAVNNIKDAMPKMQIGAPVRQNIDAGERPCLQGYYTAAELKPVLDRPPQDSNAPGASGKAFKTTNLSVEEQKEKERGEAKHCFNAFASDRISLHRDLGPDTRPPECIEQKFKRCPPLPTTSVIIVFHNEAWSTLLRTVHSVLYSSPAILLKEIILVDDASVDEYLHDKLDEYVKQFSIVKIVRQRERKGLITARLLGATVATAETLTFLDAHCECFYGWLEPLLARIAENYTAVVSPDIASIDLNTFEFNKPSPYGSNHNRGNFDWSLSFGWESLPDHEKQRRKDETYPIKTPTFAGGLFSISKEYFEYIGSYDEEMEIWGGENIEMSFRVWQCGGQLEIMPCSVVGHVFRSKSPHSFPKGTQVIARNQVRLAEVWMDEYKEIFYRRNTDAAKIVKQKAFGDLSKRFEIKHRLQCKNFTWYLNNIYPEVYVPDLNPVISGYIKSVGQPLCLDVGENNQGGKPLIMYTCHGLGGNQYFEYSAQHEIRHNIQKELCLHAAQGLVQLKACTYKGHKTVVTGEQIWEIQKDQLLYNPFLKMCLSANGEHPSLVSCNPSDPLQKWILSQND
B2: MAN2A1 (protein, UniProt Q16706 1-1144)
chain: MKLSRQFTVFGSAIFCVVIFSLYLMLDRGHLDYPRNPRREGSFPQGQLSMLQEKIDHLERLLAENNEIISNIRDSVINLSESVEDGPKSSQSNFSQGAGSHLLPSQLSLSVDTADCLFASQSGSHNSDVQMLDVYSLISFDNPDGGVWKQGFDITYESNEWDTEPLQVFVVPHSHNDPGWLKTFNDYFRDKTQYIFNNMVLKLKEDSRRKFIWSEISYLSKWWDIIDIQKKDAVKSLIENGQLEIVTGGWVMPDEATPHYFALIDQLIEGHQWLENNIGVKPRSGWAIDPFGHSPTMAYLLNRAGLSHMLIQRVHYAVKKHFALHKTLEFFWRQNWDLGSVTDILCHMMPFYSYDIPHTCGPDPKICCQFDFKRLPGGRFGCPWGVPPETIHPGNVQSRARMLLDQYRKKSKLFRTKVLLAPLGDDFRYCEYTEWDLQFKNYQQLFDYMNSQSKFKVKIQFGTLSDFFDALDKADETQRDKGQSMFPVLSGDFFTYADRDDHYWSGYFTSRPFYKRMDRIMESHLRAAEILYYFALRQAHKYKINKFLSSSLYTALTEARRNLGLFQHHDAITGTAKDWVVVDYGTRLFHSLMVLEKIIGNSAFLLILKDKLTYDSYSPDTFLEMDLKQKSQDSLPQKNIIRLSAEPRYLVVYNPLEQDRISLVSVYVSSPTVQVFSASGKPVEVQVSAVWDTANTISETAYEISFRAHIPPLGLKVYKILESASSNSHLADYVLYKNKVEDSGIFTIKNMINTEEGITLENSFVLLRFDQTGLMKQMMTKEDGKHHEVNVQFSWYGTTIKRDKSGAYLFLPDGNAKPYVYTTPPFVRVTHGRIYSEVTCFFDHVTHRVRLYHIQGIEGQSVEVSNIVDIRKVYNREIAMKISSDIKSQNRFYTDLNGYQIQPRMTLSKLPLQANVYPMTTMAYIQDAKHRLTLLSAQSLGVSSLNSGQIEVIMDRRLMQDDNRGLEQGIQDNKITANLFRILLEKRSAVNTEEEKKSVSYPSLLSHITSSLMNHPVIPMANKFSSPTLELQGEFSPLQSSLPCDIHLVNLRTIQSKVGNGHSNEAALILHRKGFDCRFSSKGTGLFCSTTQGKILVQKLLNKFIVESLTPSSLSLMHSPPGTQNISEINLSPMEISTFRIQLR
B3: MAN2A2 (protein, UniProt P49641 1-1150)
chain: MKLKKQVTVCGAAIFCVAVFSLYLMLDRVQHDPTRHQNGGNFPRSQISVLQNRIEQLEQLLEENHEIISHIKDSVLELTANAEGPPAMLPYYTVNGSWVVPPEPRPSFFSISPQDCQFALGGRGQKPELQMLTVSEELPFDNVDGGVWRQGFDISYDPHDWDAEDLQVFVVPHSHNDPGWIKTFDKYYTEQTQHILNSMVSKLQEDPRRRFLWAEVSFFAKWWDNINVQKRAAVRRLVGNGQLEIATGGWVMPDEANSHYFALIDQLIEGHQWLERNLGATPRSGWAVDPFGYSSTMPYLLRRANLTSMLIQRVHYAIKKHFAATHSLEFMWRQTWDSDSSTDIFCHMMPFYSYDVPHTCGPDPKICCQFDFKRLPGGRINCPWKVPPRAITEANVAERAALLLDQYRKKSQLFRSNVLLVPLGDDFRYDKPQEWDAQFFNYQRLFDFFNSRPNLHVQAQFGTLSDYFDALYKRTGVEPGARPPGFPVLSGDFFSYADREDHYWTGYYTSRPFYKSLDRVLEAHLRGAEVLYSLAAAHARRSGLAGRYPLSDFTLLTEARRTLGLFQHHDAITGTAKEAVVVDYGVRLLRSLVNLKQVIIHAAHYLVLGDKETYHFDPEAPFLQVDDTRLSHDALPERTVIQLDSSPRFVVLFNPLEQERFSMVSLLVNSPRVRVLSEEGQPLAVQISAHWSSATEAVPDVYQVSVPVRLPALGLGVLQLQLGLDGHRTLPSSVRIYLHGRQLSVSRHEAFPLRVIDSGTSDFALSNRYMQVWFSGLTGLLKSIRRVDEEHEQQVDMQVLVYGTRTSKDKSGAYLFLPDGEAKPYVPKEPPVLRVTEGPFFSEVVAYYEHIHQAVRLYNLPGVEGLSLDISSLVDIRDYVNKELALHIHTDIDSQGIFFTDLNGFQVQPRRYLKKLPLQANFYPMPVMAYIQDAQKRLTLHTAQALGVSSLKDGQLEVILDRRLMQDDNRGLGQGLKDNKRTCNRFRLLLERRTVGSEVQDSHSTSYPSLLSHLTSMYLNAPALALPVARMQLPGPGLRSFHPLASSLPCDFHLLNLRTLQAEEDTLPSAETALILHRKGFDCGLEAKNLGFNCTTSQGKVALGSLFHGLDVVFLQPTSLTLLYPLASPSNSTDVYLEPMEIATFRLRLG
B4: CHPF (protein, UniProt Q8IZ52 1-775)
chain: MRASLLLSVLRPAGPVAVGISLGFTLSLLSVTWVEEPCGPGPPQPGDSELPPRGNTNAARRPNSVQPGAEREKPGAGEGAGENWEPRVLPYHPAQPGQAAKKAVRTRYISTELGIRQRLLVAVLTSQTTLPTLGVAVNRTLGHRLERVVFLTGARGRRAPPGMAVVTLGEERPIGHLHLALRHLLEQHGDDFDWFFLVPDTTYTEAHGLARLTGHLSLASAAHLYLGRPQDFIGGEPTPGRYCHGGFGVLLSRMLLQQLRPHLEGCRNDIVSARPDEWLGRCILDATGVGCTGDHEGVHYSHLELSPGEPVQEGDPHFRSALTAHPVRDPVHMYQLHKAFARAELERTYQEIQELQWEIQNTSHLAVDGDQAAAWPVGIPAPSRPASRFEVLRWDYFTEQHAFSCADGSPRCPLRGADRADVADVLGTALEELNRRYHPALRLQKQQLVNGYRRFDPARGMEYTLDLQLEALTPQGGRRPLTRRVQLLRPLSRVEILPVPYVTEASRLTVLLPLAAAERDLAPGFLEAFATAALEPGDAAAALTLLLLYEPRQAQRVAHADVFAPVKAHVAELERRFPGARVPWLSVQTAAPSPLRLMDLLSKKHPLDTLFLLAGPDTVLTPDFLNRCRMHAISGWQAFFPMHFQAFHPAVAPPQGPGPPELGRDTGRFDRQAASEACFYNSDYVAARGRLAAASEQEEELLESLDVYELFLHFSSLHVLRAVEPALLQRYRAQTCSARLSEDLYHRCLQSVLEGLGSRTQLAMLLFEQEQGNST
B5: CHPF2 (protein, UniProt Q9P2E5 1-772)
chain: MRLSSLLALLRPALPLILGLSLGCSLSLLRVSWIQGEGEDPCVEAVGERGGPQNPDSRARLDQSDEDFKPRIVPYYRDPNKPYKKVLRTRYIQTELGSRERLLVAVLTSRATLSTLAVAVNRTVAHHFPRLLYFTGQRGARAPAGMQVVSHGDERPAWLMSETLRHLHTHFGADYDWFFIMQDDTYVQAPRLAALAGHLSINQDLYLGRAEEFIGAGEQARYCHGGFGYLLSRSLLLRLRPHLDGCRGDILSARPDEWLGRCLIDSLGVGCVSQHQGQQYRSFELAKNRDPEKEGSSAFLSAFAVHPVSEGTLMYRLHKRFSALELERAYSEIEQLQAQIRNLTVLTPEGEAGLSWPVGLPAPFTPHSRFEVLGWDYFTEQHTFSCADGAPKCPLQGASRADVGDALETALEQLNRRYQPRLRFQKQRLLNGYRRFDPARGMEYTLDLLLECVTQRGHRRALARRVSLLRPLSRVEILPMPYVTEATRVQLVLPLLVAEAAAAPAFLEAFAANVLEPREHALLTLLLVYGPREGGRGAPDPFLGVKAAAAELERRYPGTRLAWLAVRAEAPSQVRLMDVVSKKHPVDTLFFLTTVWTRPGPEVLNRCRMNAISGWQAFFPVHFQEFNPALSPQRSPPGPPGAGPDPPSPPGADPSRGAPIGGRFDRQASAEGCFYNADYLAARARLAGELAGQEEEEALEGLEVMDVFLRFSGLHLFRAVEPGLVQKFSLRDCSPRLSEELYHRCRLSNLEGLGGRAQLAMALFEQEQANST
B6: CHST12 (protein, UniProt Q9NRB3 1-414)
chain: MTKARLFRLWLVLGSVFMILLIIVYWDSAGAAHFYLHTSFSRPHTGPPLPTPGPDRDRELTADSDVDEFLDKFLSAGVKQSDLPRKETEQPPAPGSMEESVRGYDWSPRDARRSPDQGRQQAERRSVLRGFCANSSLAFPTKERAFDDIPNSELSHLIVDDRHGAIYCYVPKVACTNWKRVMIVLSGSLLHRGAPYRDPLRIPREHVHNASAHLTFNKFWRRYGKLSRHLMKVKLKKYTKFLFVRDPFVRLISAFRSKFELENEEFYRKFAVPMLRLYANHTSLPASAREAFRAGLKVSFANFIQYLLDPHTEKLAPFNEHWRQVYRLCHPCQIDYDFVGKLETLDEDAAQLLQLLQVDRQLRFPPSYRNRTASSWEEDWFAKIPLAWRQQLYKLYEADFVLFGYPKPENLLRD
B7: CHST14 (protein, UniProt Q8NCH0 1-376)
chain: MFPRPLTPLAAPNGAEPLGRALRRAPLGRARAGLGGPPLLLPSMLMFAVIVASSGLLLMIERGILAEMKPLPLHPPGREGTAWRGKAPKPGGLSLRAGDADLQVRQDVRNRTLRAVCGQPGMPRDPWDLPVGQRRTLLRHILVSDRYRFLYCYVPKVACSNWKRVMKVLAGVLDSVDVRLKMDHRSDLVFLADLRPEEIRYRLQHYFKFLFVREPLERLLSAYRNKFGEIREYQQRYGAEIVRRYRAGAGPSPAGDDVTFPEFLRYLVDEDPERMNEHWMPVYHLCQPCAVHYDFVGSYERLEADANQVLEWVRAPPHVRFPARQAWYRPASPESLHYHLCSAPRALLQDVLPKYILDFSLFAYPLPNVTKEACQQ

What follows are binders tested against T1, ST6GALNAC1 fused to ultraID (assay: proximity labelling).

binding, binds:
B1
B2
B3
B4
B5
B6
B7
